Assay results published in doi:10.1101/618744.
No constants are given. Whether binding was seen depends on the method and setting. Binding seen in cells or lysates may run through a third protein. Some entries that bind do so weakly or less than the wild type. Tags and fused reporters may be left off the sequences shown.

Molecular target: T1, SPINDLY (SPY), FLAG-tagged (35S::FLAG:SPY) (Arabidopsis thaliana) (UniProt Q96301)
T1 sequence: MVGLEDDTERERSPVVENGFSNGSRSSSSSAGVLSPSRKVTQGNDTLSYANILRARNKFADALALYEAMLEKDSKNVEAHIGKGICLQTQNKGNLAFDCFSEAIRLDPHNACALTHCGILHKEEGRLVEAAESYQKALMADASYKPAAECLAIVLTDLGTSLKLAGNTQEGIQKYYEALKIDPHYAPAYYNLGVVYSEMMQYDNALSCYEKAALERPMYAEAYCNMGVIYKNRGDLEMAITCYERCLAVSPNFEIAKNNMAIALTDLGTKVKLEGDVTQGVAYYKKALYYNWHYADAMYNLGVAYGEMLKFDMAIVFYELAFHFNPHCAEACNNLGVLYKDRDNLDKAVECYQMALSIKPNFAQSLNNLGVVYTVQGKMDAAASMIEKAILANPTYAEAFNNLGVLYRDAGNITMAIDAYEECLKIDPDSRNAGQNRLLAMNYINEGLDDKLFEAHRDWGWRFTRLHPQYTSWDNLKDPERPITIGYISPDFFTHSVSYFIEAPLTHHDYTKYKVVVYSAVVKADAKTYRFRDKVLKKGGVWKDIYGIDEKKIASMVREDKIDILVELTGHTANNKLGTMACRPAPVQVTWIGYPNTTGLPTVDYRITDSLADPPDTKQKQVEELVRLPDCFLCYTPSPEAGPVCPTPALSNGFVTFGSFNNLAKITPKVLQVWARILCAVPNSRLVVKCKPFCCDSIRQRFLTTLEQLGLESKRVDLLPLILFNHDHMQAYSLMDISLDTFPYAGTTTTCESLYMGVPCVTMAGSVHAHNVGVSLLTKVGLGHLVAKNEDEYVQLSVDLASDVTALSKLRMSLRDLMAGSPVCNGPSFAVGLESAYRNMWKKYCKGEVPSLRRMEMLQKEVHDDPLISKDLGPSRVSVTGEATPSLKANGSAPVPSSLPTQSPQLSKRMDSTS
Experiment: co-IP

binding: binds
B1: SQUAMOSA PROMOTER BINDING PROTEIN-LIKE 15 (SPL15), HA-tagged (protein, UniProt Q9M2Q6 1-354)
chain: MELLMCSGQAESGGSSSTESSSLSGGLRFGQKIYFEDGSGSRSKNRVNTVRKSSTTARCQVEGCRMDLSNVKAYYSRHKVCCIHSKSSKVIVSGLHQRFCQQCSRFHQLSEFDLEKRSCRRRLACHNERRRKPQPTTALFTSHYSRIAPSLYGNPNAAMIKSVLGDPTAWSTARSVMQRPGPWQINPVRETHPHMNVLSHGSSSFTTCPEMINNNSTDSSCALSLLSNSYPIHQQQLQTPTNTWRPSSGFDSMISFSDKVTMAQPPPISTHQPPISTHQQYLSQTWEVIAGEKSNSHYMSPVSQISEPADFQISNGTTMGGFELYLHQQVLKQYMEPENTRAYDSSPQHFNWSL
